Source: the supplement of paper PMC11732987, “Enantioselective OTUD7B fragment discovery through chemoproteomics screening and high-throughput optimisation” (Communications Chemistry, 2025)
Some of the results follow. The data scatter; read single values as rough.

Amino acid sequences for entries named in this document (tags omitted). A change or cut given only in a name is not applied to a line headed by its entry. Residues count along the entry.
UniProt Q7Z4H7: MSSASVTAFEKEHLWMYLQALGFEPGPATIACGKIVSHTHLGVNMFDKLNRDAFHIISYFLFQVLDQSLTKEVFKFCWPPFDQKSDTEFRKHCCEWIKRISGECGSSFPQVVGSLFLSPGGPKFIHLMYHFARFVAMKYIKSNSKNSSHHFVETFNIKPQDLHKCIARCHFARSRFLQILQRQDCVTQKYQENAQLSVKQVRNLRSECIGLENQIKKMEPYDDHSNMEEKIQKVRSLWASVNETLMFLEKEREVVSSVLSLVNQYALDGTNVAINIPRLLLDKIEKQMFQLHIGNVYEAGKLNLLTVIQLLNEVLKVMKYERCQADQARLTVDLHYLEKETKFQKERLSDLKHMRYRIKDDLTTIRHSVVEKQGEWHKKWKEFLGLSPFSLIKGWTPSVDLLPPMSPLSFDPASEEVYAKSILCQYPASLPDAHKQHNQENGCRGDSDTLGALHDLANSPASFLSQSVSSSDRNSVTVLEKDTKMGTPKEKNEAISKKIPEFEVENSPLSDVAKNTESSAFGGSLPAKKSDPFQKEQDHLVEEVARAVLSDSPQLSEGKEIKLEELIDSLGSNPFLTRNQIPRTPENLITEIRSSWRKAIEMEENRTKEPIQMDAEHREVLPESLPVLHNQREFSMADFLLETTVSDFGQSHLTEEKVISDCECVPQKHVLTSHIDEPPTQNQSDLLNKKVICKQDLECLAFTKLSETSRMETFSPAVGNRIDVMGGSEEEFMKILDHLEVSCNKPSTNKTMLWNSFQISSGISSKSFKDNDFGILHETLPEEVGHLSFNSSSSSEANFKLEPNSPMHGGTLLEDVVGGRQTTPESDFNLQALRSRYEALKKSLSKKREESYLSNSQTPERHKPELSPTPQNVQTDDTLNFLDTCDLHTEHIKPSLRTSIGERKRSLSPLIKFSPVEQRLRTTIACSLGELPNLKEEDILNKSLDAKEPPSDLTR
UniProt Q9P2D3: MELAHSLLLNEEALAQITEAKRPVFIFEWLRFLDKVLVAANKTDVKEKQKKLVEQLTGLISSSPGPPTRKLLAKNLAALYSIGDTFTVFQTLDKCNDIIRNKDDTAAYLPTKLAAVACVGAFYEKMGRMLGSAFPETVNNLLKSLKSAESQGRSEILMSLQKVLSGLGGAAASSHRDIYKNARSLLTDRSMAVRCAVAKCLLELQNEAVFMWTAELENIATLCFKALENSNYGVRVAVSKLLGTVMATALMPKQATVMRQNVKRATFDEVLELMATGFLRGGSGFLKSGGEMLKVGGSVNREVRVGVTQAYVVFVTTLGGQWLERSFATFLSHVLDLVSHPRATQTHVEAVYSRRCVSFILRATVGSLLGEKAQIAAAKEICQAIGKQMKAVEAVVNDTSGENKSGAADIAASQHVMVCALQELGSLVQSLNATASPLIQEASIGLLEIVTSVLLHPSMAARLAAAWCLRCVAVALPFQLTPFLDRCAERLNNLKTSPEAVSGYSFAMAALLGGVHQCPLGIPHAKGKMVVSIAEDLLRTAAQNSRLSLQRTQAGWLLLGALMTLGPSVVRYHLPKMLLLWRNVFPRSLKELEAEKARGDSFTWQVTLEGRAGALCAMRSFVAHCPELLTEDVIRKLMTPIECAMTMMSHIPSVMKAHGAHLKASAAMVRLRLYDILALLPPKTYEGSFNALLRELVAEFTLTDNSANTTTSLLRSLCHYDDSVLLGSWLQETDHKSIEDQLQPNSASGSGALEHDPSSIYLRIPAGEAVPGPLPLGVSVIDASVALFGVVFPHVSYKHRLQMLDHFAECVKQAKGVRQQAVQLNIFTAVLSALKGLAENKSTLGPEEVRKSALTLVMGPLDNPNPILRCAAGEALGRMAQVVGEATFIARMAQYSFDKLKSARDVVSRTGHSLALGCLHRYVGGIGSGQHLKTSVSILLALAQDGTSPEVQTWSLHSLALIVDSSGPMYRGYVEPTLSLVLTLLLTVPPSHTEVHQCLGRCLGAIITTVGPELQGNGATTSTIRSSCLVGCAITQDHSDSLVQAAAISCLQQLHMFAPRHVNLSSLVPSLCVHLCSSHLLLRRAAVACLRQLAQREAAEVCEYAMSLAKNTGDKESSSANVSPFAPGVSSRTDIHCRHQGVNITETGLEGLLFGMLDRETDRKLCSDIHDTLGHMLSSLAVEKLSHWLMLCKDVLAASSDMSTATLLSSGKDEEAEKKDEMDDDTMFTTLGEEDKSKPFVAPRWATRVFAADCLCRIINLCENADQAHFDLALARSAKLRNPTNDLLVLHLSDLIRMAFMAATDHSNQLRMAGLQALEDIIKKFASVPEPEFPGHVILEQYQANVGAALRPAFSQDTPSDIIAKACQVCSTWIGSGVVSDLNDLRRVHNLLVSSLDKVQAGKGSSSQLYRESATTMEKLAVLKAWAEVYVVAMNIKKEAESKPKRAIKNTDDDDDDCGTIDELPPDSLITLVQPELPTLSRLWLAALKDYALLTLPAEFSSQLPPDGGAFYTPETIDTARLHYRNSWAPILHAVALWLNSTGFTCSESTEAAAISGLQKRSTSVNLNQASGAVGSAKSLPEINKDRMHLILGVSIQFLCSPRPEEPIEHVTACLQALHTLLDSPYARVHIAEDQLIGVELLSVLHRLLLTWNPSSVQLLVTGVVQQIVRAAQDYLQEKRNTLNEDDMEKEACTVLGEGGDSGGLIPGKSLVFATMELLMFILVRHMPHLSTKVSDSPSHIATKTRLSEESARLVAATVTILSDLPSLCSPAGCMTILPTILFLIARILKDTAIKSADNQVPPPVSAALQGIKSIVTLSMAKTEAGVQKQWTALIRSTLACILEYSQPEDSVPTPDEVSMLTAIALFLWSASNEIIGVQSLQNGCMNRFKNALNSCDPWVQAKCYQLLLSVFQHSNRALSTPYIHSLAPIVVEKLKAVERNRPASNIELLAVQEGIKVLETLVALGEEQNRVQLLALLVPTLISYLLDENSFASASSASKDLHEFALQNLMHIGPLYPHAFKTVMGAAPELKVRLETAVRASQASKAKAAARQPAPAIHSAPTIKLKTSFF
UniProt Q8NG08: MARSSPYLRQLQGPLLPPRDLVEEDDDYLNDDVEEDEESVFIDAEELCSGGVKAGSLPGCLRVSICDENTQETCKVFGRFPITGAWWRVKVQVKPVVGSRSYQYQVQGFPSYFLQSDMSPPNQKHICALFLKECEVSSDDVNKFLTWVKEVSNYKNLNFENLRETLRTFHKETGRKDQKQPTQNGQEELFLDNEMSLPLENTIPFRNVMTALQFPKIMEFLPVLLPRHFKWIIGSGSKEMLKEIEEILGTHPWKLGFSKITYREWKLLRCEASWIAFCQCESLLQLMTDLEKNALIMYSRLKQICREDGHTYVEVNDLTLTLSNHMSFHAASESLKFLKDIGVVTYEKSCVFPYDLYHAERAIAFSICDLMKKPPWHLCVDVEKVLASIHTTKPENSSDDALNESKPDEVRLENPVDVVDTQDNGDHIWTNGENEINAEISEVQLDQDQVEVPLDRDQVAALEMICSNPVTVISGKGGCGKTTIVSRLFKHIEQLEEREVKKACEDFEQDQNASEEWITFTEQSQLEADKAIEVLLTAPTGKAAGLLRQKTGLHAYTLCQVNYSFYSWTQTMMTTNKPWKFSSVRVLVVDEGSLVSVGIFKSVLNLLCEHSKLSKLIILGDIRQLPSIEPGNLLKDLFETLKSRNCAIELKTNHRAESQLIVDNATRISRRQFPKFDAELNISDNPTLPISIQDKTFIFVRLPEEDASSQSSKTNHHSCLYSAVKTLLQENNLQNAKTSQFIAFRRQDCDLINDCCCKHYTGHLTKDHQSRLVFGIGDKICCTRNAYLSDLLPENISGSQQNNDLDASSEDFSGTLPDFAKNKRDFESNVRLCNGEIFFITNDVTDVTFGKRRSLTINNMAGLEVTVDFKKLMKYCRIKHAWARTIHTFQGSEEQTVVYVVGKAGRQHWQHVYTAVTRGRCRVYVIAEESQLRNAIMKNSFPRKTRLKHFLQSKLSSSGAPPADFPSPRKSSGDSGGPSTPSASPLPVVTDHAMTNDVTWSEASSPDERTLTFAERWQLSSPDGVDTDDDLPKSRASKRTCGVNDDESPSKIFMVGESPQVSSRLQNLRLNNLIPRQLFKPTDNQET
UniProt Q86VS8, 429-464: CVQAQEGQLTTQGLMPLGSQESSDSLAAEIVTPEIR
UniProt P28161: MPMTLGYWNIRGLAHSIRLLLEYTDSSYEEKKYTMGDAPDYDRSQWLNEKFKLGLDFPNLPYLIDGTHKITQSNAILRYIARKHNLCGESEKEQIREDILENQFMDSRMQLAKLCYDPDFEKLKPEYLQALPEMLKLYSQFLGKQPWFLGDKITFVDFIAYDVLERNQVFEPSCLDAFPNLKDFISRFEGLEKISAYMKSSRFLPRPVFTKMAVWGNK
UniProt Q12789: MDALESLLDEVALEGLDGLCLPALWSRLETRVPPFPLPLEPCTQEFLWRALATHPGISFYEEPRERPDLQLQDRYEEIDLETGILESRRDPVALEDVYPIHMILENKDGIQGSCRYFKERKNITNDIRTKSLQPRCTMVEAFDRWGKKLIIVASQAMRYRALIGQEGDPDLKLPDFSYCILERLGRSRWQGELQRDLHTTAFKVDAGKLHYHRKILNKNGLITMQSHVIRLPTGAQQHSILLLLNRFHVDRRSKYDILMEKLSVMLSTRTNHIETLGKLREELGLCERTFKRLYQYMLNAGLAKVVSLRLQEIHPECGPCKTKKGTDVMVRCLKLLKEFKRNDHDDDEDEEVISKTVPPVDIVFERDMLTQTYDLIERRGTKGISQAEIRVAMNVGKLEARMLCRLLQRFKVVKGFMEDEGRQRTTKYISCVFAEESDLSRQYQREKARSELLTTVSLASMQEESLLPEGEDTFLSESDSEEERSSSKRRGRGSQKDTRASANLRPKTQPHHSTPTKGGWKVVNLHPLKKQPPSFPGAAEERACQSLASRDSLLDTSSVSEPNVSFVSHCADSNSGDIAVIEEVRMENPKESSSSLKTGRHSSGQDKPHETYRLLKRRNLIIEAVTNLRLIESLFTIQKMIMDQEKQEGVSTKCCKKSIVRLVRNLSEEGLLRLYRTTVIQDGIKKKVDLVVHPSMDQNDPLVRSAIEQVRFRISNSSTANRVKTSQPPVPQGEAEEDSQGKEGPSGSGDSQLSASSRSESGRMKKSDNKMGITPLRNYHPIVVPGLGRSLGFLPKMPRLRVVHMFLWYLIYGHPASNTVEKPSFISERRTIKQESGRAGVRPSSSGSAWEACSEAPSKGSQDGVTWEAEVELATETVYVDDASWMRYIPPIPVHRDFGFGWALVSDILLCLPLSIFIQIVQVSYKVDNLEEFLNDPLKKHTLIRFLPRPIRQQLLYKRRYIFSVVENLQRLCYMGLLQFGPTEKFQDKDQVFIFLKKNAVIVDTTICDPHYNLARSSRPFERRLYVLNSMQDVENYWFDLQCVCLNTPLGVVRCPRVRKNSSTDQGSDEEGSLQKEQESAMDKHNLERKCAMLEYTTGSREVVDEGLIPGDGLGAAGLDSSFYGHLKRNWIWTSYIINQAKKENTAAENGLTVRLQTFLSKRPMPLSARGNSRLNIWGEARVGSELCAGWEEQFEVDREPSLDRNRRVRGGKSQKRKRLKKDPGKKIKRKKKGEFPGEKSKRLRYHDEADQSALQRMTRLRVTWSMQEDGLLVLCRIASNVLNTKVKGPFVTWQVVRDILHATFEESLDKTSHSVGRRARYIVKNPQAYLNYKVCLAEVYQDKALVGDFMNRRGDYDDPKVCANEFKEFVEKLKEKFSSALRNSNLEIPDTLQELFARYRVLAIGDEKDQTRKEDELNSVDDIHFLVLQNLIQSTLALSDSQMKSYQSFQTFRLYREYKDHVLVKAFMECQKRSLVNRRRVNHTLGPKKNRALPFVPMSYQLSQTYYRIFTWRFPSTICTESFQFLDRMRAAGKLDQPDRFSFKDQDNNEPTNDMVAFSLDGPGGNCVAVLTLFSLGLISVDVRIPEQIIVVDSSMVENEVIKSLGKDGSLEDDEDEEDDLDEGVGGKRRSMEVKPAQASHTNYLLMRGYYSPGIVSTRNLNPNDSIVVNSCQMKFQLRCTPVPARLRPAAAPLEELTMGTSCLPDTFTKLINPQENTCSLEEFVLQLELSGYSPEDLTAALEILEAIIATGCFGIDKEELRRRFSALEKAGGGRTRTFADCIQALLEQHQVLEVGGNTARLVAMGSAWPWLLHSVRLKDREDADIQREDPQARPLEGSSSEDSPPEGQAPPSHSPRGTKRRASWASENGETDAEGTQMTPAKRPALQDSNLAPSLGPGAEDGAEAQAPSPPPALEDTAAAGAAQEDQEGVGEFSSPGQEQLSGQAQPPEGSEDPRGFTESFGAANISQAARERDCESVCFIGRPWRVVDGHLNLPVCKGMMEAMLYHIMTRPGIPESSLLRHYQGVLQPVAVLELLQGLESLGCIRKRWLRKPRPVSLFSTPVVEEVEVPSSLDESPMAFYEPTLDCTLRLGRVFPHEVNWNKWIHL
UniProt Q00839, 638-664: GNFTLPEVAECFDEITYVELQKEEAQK

The targets below were run with ClCC(=O)N[C@H]1CCCc2ccccc12 (assay: log2 mean competition ratio of IA-DTB cysteine labelling (DMSO/compound) (log2 ratio); higher = stronger cysteine engagement by compound). Settings: 50 µM; treatment time: 4 h; cell line lysate: HEK293T.
Method: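 IA-DTB competitive cysteine chemoproteomics in HEK293T RIPA lysate. Lysates were treated with compound 29 or 30 at 50 or 200 µM for 4 h, then IA-DTB (500 µM, 1 h), trypsin-digested, NeutrAvidin-enriched and analysed by diaPASEF. Competition ratio = intensity DMSO / intensity compound (n=4 treated, n=64 DMSO); binding: mean log2 CR ≥ 1 and p ≤ 0.05 plus QC filters. Target is the cysteine site.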

Row | Target | log2 mean competition ratio
1 | HMGCS1 C406 (UniProt Q01581) | 0.374
2 | HAUS6 C424 (UniProt Q7Z4H7) | -0.125
3 | GTF3C3 C172 (UniProt Q9Y5Q9) | -0.351
4 | HECTD4 C1406 | 0.234
5 | GXYLT1 C123 (UniProt Q4G148) | 0.201
6 | HNRNPK C145 (UniProt P61978) | -0.318
7 | HLTF C360 (UniProt Q14527) | 0.0104
8 | HBS1L C504 (UniProt Q9Y450) | -0.835
9 | HEATR5B C1693 (UniProt Q9P2D3) | 0.249
10 | HELB C646 (UniProt Q8NG08) | 0.0643
11 | GSTO1 C192 | -0.442
12 | HERC1 C4837 (UniProt Q15751) | 0.253
13 | HOOK3 C429 (UniProt Q86VS8) | 0.407
14 | GSTM2 C115 (UniProt P28161) | -0.327
15 | HELB C379 (UniProt Q8NG08) | -0.0754
16 | GTF3C1 C1999 (UniProt Q12789) | 0.116
17 | HNRNPU C648 (UniProt Q00839) | 0.145
18 | GTF3C1 C1363 (UniProt Q12789) | 0.567
19 | HEATR5A C614 (UniProt Q86XA9) | 0.31
20 | GTF3C1 C179 (UniProt Q12789) | -0.403

Same assay, conditions: 200 µM; treatment time: 4 h; cell line lysate: HEK293T

Row | Target | log2 mean competition ratio
21 | HMGCS1 C406 (UniProt Q01581) | -0.368
22 | HAUS6 C424 (UniProt Q7Z4H7) | 0.219
23 | GTF3C3 C172 (UniProt Q9Y5Q9) | -0.108
24 | HECTD4 C1406 | -0.021
25 | GXYLT1 C123 (UniProt Q4G148) | 0.24
26 | HNRNPK C145 (UniProt P61978) | 0.123
27 | HLTF C360 (UniProt Q14527) | 0.0632
28 | HBS1L C504 (UniProt Q9Y450) | -0.095
29 | HEATR5B C1693 (UniProt Q9P2D3) | -0.19
30 | HELB C646 (UniProt Q8NG08) | -0.0369
31 | GSTO1 C192 | -0.807
32 | HERC1 C4837 (UniProt Q15751) | 0.0117
33 | HOOK3 C429 (UniProt Q86VS8) | -0.434
34 | GSTM2 C115 (UniProt P28161) | -0.128
35 | HELB C379 (UniProt Q8NG08) | -0.243
36 | GTF3C1 C1999 (UniProt Q12789) | 0.506
37 | HNRNPU C648 (UniProt Q00839) | -0.0554
38 | GTF3C1 C1363 (UniProt Q12789) | -0.0217
39 | HEATR5A C614 (UniProt Q86XA9) | 0.0689
40 | GTF3C1 C179 (UniProt Q12789) | -0.061
